For orientation: IC50 means the concentration needed to halve the response being measured.

By UniProt entry, the sequences of proteins in these tests, tags left out. Residues count along the entry.
UniProt P98170, 120-356 limits assumed: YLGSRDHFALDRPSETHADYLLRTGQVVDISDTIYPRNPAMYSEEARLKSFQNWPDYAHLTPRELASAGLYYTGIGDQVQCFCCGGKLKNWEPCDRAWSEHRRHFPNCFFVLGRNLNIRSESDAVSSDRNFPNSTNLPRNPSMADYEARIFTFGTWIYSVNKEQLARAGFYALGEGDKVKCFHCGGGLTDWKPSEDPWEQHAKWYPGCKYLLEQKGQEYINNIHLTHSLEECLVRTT

Drawing on US8883771B2, this text covers IC50 for 5 compounds.

In test [1] the test system is SK-OV-3 ovarian cancer cell line. Put plainly: Inhibition of cell growth in SK-OV-3 ovarian cancer cell line. The format is cell-based, human. Particulars: read-out: Cell growth Inhibition (IC50, nM) SK-OV-3 Cancer Cell Line.
Test [2] concerns MDA-MB-231 breast cancer cell line. Put plainly: Inhibition of cell growth in MDA-MB-231 breast cancer cell line. The format is cell-based, human. The following applies: read-out: Cell growth Inhibition (IC50, nM) MDA-MB-231 Cancer Cell Line.
Test [3] addresses cIAP1-BIR3 (residues 253-363) (Homo sapiens (Human), UniProt Q13490). Put plainly: Fluorescence polarization (FP) based competitive binding assay, cIAP1-BIR3. Particulars: read-out: Binding Affinities IC50 (nM) cIAP1 Protein, Smac-2F probe. On the technique in general: Fluorescence polarisation rises when a labelled molecule tumbles more slowly, as on binding a larger partner.
In test [4] the target is cIAP-2 BIR3 (residues 238-349) (Homo sapiens (Human), UniProt Q13489). The test can be described thus: Fluorescence polarization (FP) based competitive binding assay, cIAP-2 BIR3. The following applies: read-out: Binding Affinities IC50 (nM) cIAP2 Protein, Smac-2F probe.
In test [5] the target is XIAP linker-BIR2-BIR3 (residues 120-356) (Homo sapiens (Human), UniProt P98170). The test can be described thus: Fluorescence polarization (FP) based competitive binding assay, XIAP linker-BIR2-BIR3. Particulars: read-out: Binding Affinities IC50 (nM) XIAP Protein, Smac-1F probe.

The structures given here were assigned with low confidence; some may be wrong.

Regarding `CN[C@@H](C)C(=O)N[C@H]1CN(C(=O)Nc2ccc(NC(=O)N3CC[C@H]4CC[C@@H](C(=O)N[C@H]5C[C@@H]5c5ccc(C(F)(F)F)cc5)N4C(=O)[C@@H](NC(=O)[C@H](C)NC)C3)cc2)CC[C@H]2CC[C@@H](C(=O)N[C@H]3C[C@@H]3c3ccc(C(F)(F)F)cc3)N2C1=O` [Example 35], the half-maximal inhibitory concentration (IC50) in test [1] and in test [2] was below 10000 nM in each case.
On to `CN[C@@H](C)C(=O)N[C@H]1CN(C(=S)Nc2ccc(Cc3ccc(NC(=S)N4CC[C@H]5CC[C@@H](C(=O)NC(c6ccccc6)c6ccccc6)N5C(=O)[C@@H](NC(=O)[C@H](C)NC)C4)cc3)cc2)CC[C@H]2CC[C@@H](C(=O)NC(c3ccccc3)c3ccccc3)N2C1=O`, for which the IC50 in test [1] and in test [2] was below 1000 nM in each case.
On to `CN[C@@H](C)C(=O)N[C@H]1CN(S(=O)(=O)c2cccc(S(=O)(=O)N3CC[C@H]4CC[C@@H](C(=O)NC(c5ccccc5)c5ccccc5)N4C(=O)[C@@H](NC(=O)[C@H](C)NC)C3)c2)CC[C@H]2CC[C@@H](C(=O)NC(c3ccccc3)c3ccccc3)N2C1=O`, for which the IC50 in test [1] and in test [2] was below 100 nM throughout.
Consider `CN[C@@H](C)C(=O)N[C@H]1CN(C(=O)NCCCCCCNC(=O)N2CC[C@H]3CC[C@@H](C(=O)N[C@@H]4CCCC[C@H]4c4ccccc4)N3C(=O)[C@@H](NC(=O)[C@H](C)NC)C2)CC[C@H]2CC[C@@H](C(=O)N[C@@H]3CCCC[C@H]3c3ccccc3)N2C1=O`, for which the IC50 in test [1] is below 1000 nM; in test [3] it was below 5000 nM; in test [4], below 5000 nM; in test [5] it was below 5000 nM; in test [2], below 1000 nM.
As for `CN[C@@H](C)C(=O)N[C@H]1CN(C(=O)Nc2ccc(NC(=O)N3CC[C@H]4CC[C@@H](C(=O)N[C@H]5C[C@@H]5c5ccc(C(F)(F)F)cc5F)N4C(=O)[C@@H](NC(=O)[C@H](C)NC)C3)cc2)CC[C@H]2CC[C@@H](C(=O)N[C@H]3C[C@@H]3c3ccc(C(F)(F)F)cc3F)N2C1=O`, the IC50 in test [1] and in test [2] was below 10000 nM each time.
